The supplement of paper PMC7877785
± gives the uncertainty stated by the source. Many entries were measured with a wide error.

Experiment: self-splicing fitness, log relative to wild type (ln ratio); higher = more splicing; Tetrahymena group I intron in knt gene, E. coli kanamycin selection, DiMSum; sequences stand for … in CUCUCU…GGAGGGAAAAGUUAUCAGGCAUGCACCUGGUAGCUAGUCUUUAAACCAAUAGAUUGCAUCGGUUUAAAAGGCAAGACCGUCAAAUUGCGGGAAAGGGGUCAACAGCCGUUCAGUACCAAGUCUCAGGGGAAACUUUGAGAUGGCCUUGCAAAGGGUAUGGUAAUAAGCUGACGGACAUGGUCCUAACCACGCAGCCAAGUCCUAAGUCAACAGAUCUUCUGUUGAUAUGGAUGCAGUUCACAGACUAAAUGUCGGUCGGGGAAGAUGUAUUCUUCUCAUAAGAUAUAGUCGGACCUCUCCUUAAUGGGAGCUAGCGGAUGAAGUGAUGCAACACUGGAGCCGCUGGGAACUAAUUUGUAUGCGAAAGUAUAUUGAUUAGUUUUGGAGUACUCGUGGUCG
Outline: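 Six replicate transformations of E. coli BL21(DE3) with a pET-22b(+) library were grown overnight at 37°C or 30°C. The library randomised all eight P1ex-region intron nucleotides, the intron lying in the knt kanamycin-resistance gene, and plates were LB agar with or without 25 μg/mL kanamycin plus 100 μg/mL carbenicillin, 50 μM IPTG and 0.2% rhamnose. Pooled colonies were amplicon-sequenced on an Illumina HiSeq 2500, and fitness is the DiMSum error-weighted combination of wild-type-normalised replicate fold changes, kanamycin versus none.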

| Sequence | self-splicing fitness (ln) (30 °C) | self-splicing fitness (ln) (37 °C) |
| --- | --- | --- |
| GUGUAGCAAUAUUACGAAUG | -2.91 ± 1.1 |  |
| UCGGAGCAAUAUUACGCUUC | -3.84 ± 0.62 | -1.88 ± 0.82 |
| UUGAAGCAAUAUUACGAACC | -1.68 ± 0.24 | -1.77 ± 0.44 |
| ACACAGCAAUAUUACGUUCU | -0.986 ± 0.06 | -0.532 ± 0.068 |
| UCCGAGCAAUAUUACGAGGU |  | -2.84 ± 0.54 |
| CAGGAGCAAUAUUACGGUAA | -4.48 ± 0.73 |  |
| GUAGAGCAAUAUUACGCCGA | -1.1 ± 0.65 | -1.39 ± 0.62 |
| AGGGAGCAAUAUUACGAGUC |  | -2.38 ± 0.51 |
| UCAGAGCAAUAUUACGGGGA | -1.48 ± 0.11 | -1.1 ± 0.13 |
| UAUUAGCAAUAUUACGUGCC | -3.87 ± 1 | -1.48 ± 0.84 |
| UUUCAGCAAUAUUACGUAGC |  | -1.69 ± 0.53 |
| CCUCAGCAAUAUUACGAUCC |  | -3.23 ± 0.74 |
| UACCAGCAAUAUUACGUCGU | -2.09 ± 0.09 | -2.14 ± 0.12 |
| GCUGAGCAAUAUUACGUCAA |  | -3.99 ± 0.51 |
| CCUGAGCAAUAUUACGCAGU | -2.91 ± 0.2 | -2.84 ± 0.28 |
| UGAUAGCAAUAUUACGCCCC | -2.85 ± 0.43 | -0.875 ± 0.38 |
| AGCCAGCAAUAUUACGCCAC | -3.35 ± 0.73 |  |
| GACUAGCAAUAUUACGAGGC | -3.65 ± 0.52 |  |
| AUAGAGCAAUAUUACGAUCC | -3.08 ± 0.33 | -2.18 ± 0.36 |
| GGCGAGCAAUAUUACGCCUC |  | -2.03 ± 0.66 |
| CGUGAGCAAUAUUACGGUAA | -4.91 ± 0.51 |  |
| GUGUAGCAAUAUUACGAACC | -2.19 ± 0.65 | -1.29 ± 0.69 |
| AGUCAGCAAUAUUACGCGGC |  | -3.78 ± 0.6 |
| UUGGAGCAAUAUUACGUAUA |  | -2.15 ± 0.79 |
| AAGGAGCAAUAUUACGGGUG |  | -0.677 ± 0.57 |
| CUAUAGCAAUAUUACGAAAC | -3.89 ± 1 |  |
| UGUUAGCAAUAUUACGGCAU | -3.67 ± 0.32 | -1.95 ± 0.27 |
| GGAAAGCAAUAUUACGAACC | -3.32 ± 0.33 | -1.2 ± 0.19 |

| Sequence | self-splicing fitness (ln) (30 °C) | self-splicing fitness (ln) (37 °C) |
| --- | --- | --- |
| GACGAGCAAUAUUACGAAGA |  | -3.18 ± 0.52 |
| UUAGAGCAAUAUUACGCUUC | -2.81 ± 0.32 | -3.26 ± 1 |
| ACUGAGCAAUAUUACGAUUG | -4.11 ± 0.52 |  |
| CGUUAGCAAUAUUACGAGAC | -2.59 ± 0.55 | -1.32 ± 0.61 |
| CCAGAGCAAUAUUACGCUGU |  | -3.91 ± 0.51 |
| GUGUAGCAAUAUUACGCCAG | -3.12 ± 1.1 |  |
| GAUAAGCAAUAUUACGCUUA | -3.59 ± 0.31 | -2.91 ± 0.23 |
| AGAUAGCAAUAUUACGGGAU | -1.24 ± 0.19 | -1.21 ± 0.16 |
| GUACAGCAAUAUUACGAGUG | -3.17 ± 0.34 | -1.25 ± 0.18 |
| UGCGAGCAAUAUUACGGCUG | -1.04 ± 0.1 | -0.349 ± 0.15 |
| CCGUAGCAAUAUUACGCGAC | -1.91 ± 0.53 | -0.595 ± 1.4 |
| AUGGAGCAAUAUUACGGAUG | -4.35 ± 0.51 | -2.29 ± 0.37 |
| UAGCAGCAAUAUUACGUUAC | -5.27 ± 0.58 |  |
| UAUGAGCAAUAUUACGCACG | -0.0624 ± 0.67 | -2.39 ± 1.1 |
| CUGCAGCAAUAUUACGCUCU | -3.52 ± 0.41 | -2.27 ± 0.25 |
| AGUAAGCAAUAUUACGAGUC | -2.96 ± 0.23 | -1.45 ± 0.17 |
| CAGUAGCAAUAUUACGUCCC | -3.1 ± 0.67 |  |
| GUCAAGCAAUAUUACGCGUU | -2.07 ± 0.076 | -0.761 ± 0.097 |
| UUUGAGCAAUAUUACGCGCA | -3.19 ± 1.2 |  |
| AUUGAGCAAUAUUACGGACA |  | -2.92 ± 0.53 |
| GACCAGCAAUAUUACGUGAG | -1.33 ± 0.055 | -1 ± 0.064 |
| UAGAAGCAAUAUUACGCUAC | -4.14 ± 0.72 |  |
| GAGGAGCAAUAUUACGAGGC | -3.47 ± 0.47 | -2.39 ± 1.1 |
| GGGAAGCAAUAUUACGCUUC |  | -2.09 ± 0.67 |
| GUUUAGCAAUAUUACGGACC |  | -2.3 ± 0.78 |
| UGUAAGCAAUAUUACGGUAU | -4.54 ± 0.72 |  |
| AUUCAGCAAUAUUACGAGUA | -1.81 ± 0.2 | -1.24 ± 0.18 |

Full records from above.
GUGUAGCAAUAUUACGCCAG as listed: self-splicing fitness (ln) (30 °C) = -3.12 ± 1.1
GAGGAGCAAUAUUACGAGGC as listed: self-splicing fitness (ln) (30 °C) = -3.47 ± 0.47; self-splicing fitness (ln) (37 °C) = -2.39 ± 1.1
UGUAAGCAAUAUUACGGUAU as listed: self-splicing fitness (ln) (30 °C) = -4.54 ± 0.72
GUACAGCAAUAUUACGAGUG as listed: self-splicing fitness (ln) (30 °C) = -3.17 ± 0.34; self-splicing fitness (ln) (37 °C) = -1.25 ± 0.18
